From patent publication US20190016825A1
These are yes or no findings as the source states them, for the method shown. Some results given as binding are weak or reduced against the parent protein; the word gives no strength.

The chains behind the UniProt entries cited, without tags or fusion partners. Where a name states a change or a piece, a line headed by the entry shows the natural chain unless it says otherwise.
UniProt Q8NBP7: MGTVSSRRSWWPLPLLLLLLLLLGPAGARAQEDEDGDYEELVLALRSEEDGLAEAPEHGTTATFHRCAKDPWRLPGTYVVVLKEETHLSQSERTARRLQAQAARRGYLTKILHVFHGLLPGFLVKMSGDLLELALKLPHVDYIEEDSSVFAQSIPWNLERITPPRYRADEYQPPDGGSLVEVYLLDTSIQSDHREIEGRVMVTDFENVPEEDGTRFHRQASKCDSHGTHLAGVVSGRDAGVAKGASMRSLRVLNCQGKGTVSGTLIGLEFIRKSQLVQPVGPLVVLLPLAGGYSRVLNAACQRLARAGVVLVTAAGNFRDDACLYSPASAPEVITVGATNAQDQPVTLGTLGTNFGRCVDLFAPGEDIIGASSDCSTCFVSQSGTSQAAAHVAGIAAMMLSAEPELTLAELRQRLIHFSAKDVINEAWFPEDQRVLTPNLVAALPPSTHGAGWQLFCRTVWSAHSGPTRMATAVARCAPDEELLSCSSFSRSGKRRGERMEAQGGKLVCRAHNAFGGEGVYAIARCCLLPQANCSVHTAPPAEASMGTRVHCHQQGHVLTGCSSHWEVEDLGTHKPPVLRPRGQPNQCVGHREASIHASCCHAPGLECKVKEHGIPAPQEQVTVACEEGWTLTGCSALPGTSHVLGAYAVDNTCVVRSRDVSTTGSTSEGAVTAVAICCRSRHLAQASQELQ

What was measured:
[1] = target: PCSK9-BP15-His6 (human) (UniProt Q8NBP7); experiment: ELISA (Test 1)
[2] = target: PCSK9-D374Y-BP15-His6 (human) (UniProt Q8NBP7); experiment: ELISA (Test 2)

B1: h001-8 (antibody, human IgG1, V domains shown)
VH: QVQLVQSGAEVKKPGASVKVSCKASGYTFNDYWMHWVRQAPGQGLEWMGYINPSSGFTKYHQNFKDRVTMTRDTSISTAYMELSRLRSDDTAVYYCARQYDYDEDWYFDVWGQGTTVTVSS
VL: DIVMSQSPSSLSASVGDRVTITCKSSQSLLNSRTRKNFLAWYQQKPGKSPKLLIYWASTRESGVPDRFSGSGSGTDFTLTISSLQPEDFATYYCKQSFNLFTFGQGTKLEIK
With B1 the binding [1] was “binds” and the binding [2] was “binds”.

B2: h001-9 (antibody, human IgG1, V domains shown)
VH: QVQLVQSGAEVKKPGASVKVSCKASGYTFTDYWMHWVRQAPGQGLEWMGYINPSSGFTKYHQNFKDRVTMTRDTSISTAYMELSRLTSDDTAVYYCARQYDYDEDWYFDVWGQGTTVTVSS
VL: DIQMTQSPSSLSASVGDRVTITCKSSQSLLNSRTRKNFLAWYQQKPGKAPKLLIYWASTRESGVPSRFSGSGSGTDFTLTISSLQPEDFATYYCKQSFNLFTFGQGTKLEIK
With B2 the binding [1] was “binds” and the binding [2] was “binds”.

B3: h001-10 (antibody, human IgG1, V domains shown)
VH: QVQLVQSGAEVKKPGASVKVSCKASGYTFTDYWMHWVRQAPGQGLEWMGYINPSSGFTKYHQNFKDRVTMTRDTSISTAYMELSRLTSDDTAVYYCARQYDYDEDWYFDVWGQGTTVTVSS
VL: DIQMTQSPSSLSASVGDRVTITCKSSQSLLNSRTRKNFLAWYQQKPGKAPKLLIYWASTRESGVPDRFSGSGSGTDFTLTISSLQPEDFATYYCKQSFNLFTFGQGTKLEIK
For B3, the binding [1] was “binds” and the binding [2] was “binds”.
